# Some results were stated once for a whole list of compounds, not compound by compound. At least one structure is not confirmed: it was looked up by name or label, or the drawing left a doubt.
# Tested on: L-929 mouse fibroblast cells
# Settings: cells treated 24 h with extract; scores >2 considered cytotoxic
# Experimental: All samples were ≤0.5 mm thick and prepared as 8 mm-diameter discs (surface area of 0.50 cm^2). […] An aliquot was counted using trypan blue, and then cells were re-suspended in complete growth medium at a density of 1×10^5 cells/ml. […] After 24 h, the culture medium was removed and replaced with 100 μl of extractant. Some wells received sodium dodecyl sulfate (0 to 400 μM in EMEM; positive controls), low-density polyethylene extract (1.25 cm^2 LDPE/ml EMEM; negative control), or complete growth medium alone. Cells were then cultured for an additional 24 h. Images (mag. of 100× and 200×) of cell cultures were recorded by photo microscopy using a Olympus CK40 inverted microscope and Insight2 SPOT camera (Diagnostic Imaging) and the number of attached and dead cells were manually counted at a later time using ImageJ (NIH). […] Subsequently, cells in culture plates were washed once with Hank's Balanced Salt Solution and metabolic activity was measured by incubating cells with 100 μl of WST-1 cell proliferation reagent (Roche Diagnostics) for up to 4 h at 37° C. To determine cytotoxicity, absorbance of the medium in wells was measured at 450 nm after 2 and 4 h using a microplate reader (PHERAstar) and was corrected using absorbance measurements at 630 nm and using blanks. […]
smiles,measurement,value
"[Cl-].[Cl-].[Ru+2].c1ccc(-c2ccnc3c2ccc2c(-c4ccccc4)ccnc23)cc1.c1ccc(-c2ccnc3c2ccc2c(-c4ccccc4)ccnc23)cc1.c1ccc(-c2ccnc3c2ccc2c(-c4ccccc4)ccnc23)cc1 [Ru(dpp)3Cl2, Tris(4,7-diphenyl-1,10-phenanthroline) ruthenium II dichloride]",cytotoxicity score (morphological grading),2-3

# Source: patent US11525063B2, “Fluorescent oxygen sensing ink” (The Board of Trustees of Western Michigan University, priority 2018, dated 2022)
